Laboratory results as given in patent US20250320194A1, “PHARMACEUTICALLY ACCEPTABLE SALT AND CRYSTAL FORM OF FUSED PYRIDINE RING DERIVATIVE AND PREPARATION METHOD THEREFOR” (Jiangsu Hengrui Pharmaceuticals Co., Ltd., priority 2021, published 2025).
Further values from the same series stand in other lists.

Experiment: Long-term/accelerated stability

Row | Structure (SMILES) | Purity % (4° C., 1 month) [%] | Purity % (4° C., 2 months) [%] | Purity % (4° C., 3 months) [%] | Purity % (4° C., 6 months) [%] | Purity % (4° C., Start) [%] | Purity % (25° C., 60% RH, 1 month) [%] | Purity % (25° C., 60% RH, 2 months) [%] | Purity % (25° C., 60% RH, 3 months) [%] | Purity % (25° C., 60% RH, 6 months) [%] | Purity % (25° C., 60% RH, Start) [%] | Purity % (40° C., 75% RH, 1 month) [%] | Purity % (40° C., 75% RH, 2 months) [%] | Purity % (40° C., 75% RH, 3 months) [%] | Purity % (40° C., 75% RH, 6 months) [%] | Purity % (40° C., 75% RH, Start) [%]
1 | CC(C)(C#Cc1nc(C(Cc2cc(F)cc(F)c2)NC(=O)Cn2nc(C(F)(F)F)c3c2C(F)(F)C2CC32)c(-c2ccc(Cl)c3c([N-]S(C)(=O)=O)nn(CC(F)(F)F)c23)c2c1CCC2)S(C)(=O)=O.C[N+](C)(C)CCO (stereo not shown) [Crystal form B of the choline salt] | 98.38 | 98.31 | 98.28 | 98.30 | 98.34 | 98.37 | 98.36 | 98.29 | 98.25 | 98.34 | 98.37 | 98.32 | 98.28 | 98.23 | 98.34
2 | CC(C)(C#Cc1nc(C(Cc2cc(F)cc(F)c2)NC(=O)Cn2nc(C(F)(F)F)c3c2C(F)(F)C2CC32)c(-c2ccc(Cl)c3c([N-]S(C)(=O)=O)nn(CC(F)(F)F)c23)c2c1CCC2)S(C)(=O)=O.[Na+] (stereo not shown) [Crystal form III of the sodium salt] | – | – | – | – | – | 98.34 | 98.22 | 98.28 | 98.20 | 98.32 | 98.25 | 98.22 | 98.27 | 98.23 | 98.32
3 | CC(C)(C#Cc1nc(C(Cc2cc(F)cc(F)c2)NC(=O)Cn2nc(C(F)(F)F)c3c2C(F)(F)C2CC32)c(-c2ccc(Cl)c3c([N-]S(C)(=O)=O)nn(CC(F)(F)F)c23)c2c1CCC2)S(C)(=O)=O.[K+] (stereo not shown) [Crystal form a of the potassium salt] | 98.02 | 97.99 | 98.04 | 98.01 | 98.03 | 98.02 | 98.00 | 98.04 | 98.01 | 98.03 | 98.04 | 98.06 | 98.08 | 97.99 | 98.03
